Data: the supplement of paper PMC8732350
Several values for one entry are separate records, joined by “and”; a condition that tells them apart may be missing. Equal values may be shown once. Where a name gives a salt, the structure may show the parent alone. ± gives the standard deviation of the averaged measurements. The list shows a part of the results. Most values lie within the scatter of the assay; repeated measurements hardly agree.

What follows are compounds tested on A549 (assay: surface PD-L1 immunofluorescence intensity relative to IFN-gamma-only control (ratio); higher = more PD-L1 expression). Conditions: 10 µM; exposure time 24 h; IFN-gamma 100 ng/mL.
`CCC(=O)[C@@]1(C)[C@H](C)C[C@H]2[C@@H]3CCC4=CC(=O)C=C[C@]4(C)[C@H]3[C@@H](O)C[C@@]21C` [Rimexolone] was tested, and the “surface PD-L1 immunofluorescence intensity” value was 0.883. For `CCc1cc(C(N)=S)ccn1` [Ethionamide], the “surface PD-L1 immunofluorescence intensity” value was 1. `OCc1ccc(O[C@@H]2O[C@H](CO)[C@@H](O)[C@H](O)[C@H]2O)cc1` [Gastrodin (Gastrodine)] was tested, and the “surface PD-L1 immunofluorescence intensity” value was 0.854. For `Cn1cc(C2=C(c3ccc(Cl)cc3Cl)C(=O)NC2=O)c2ccccc21`, the “surface PD-L1 immunofluorescence intensity” value was 1.24 and 1.21. For `CN(N=O)C(=O)N[C@@H](C=O)[C@@H](O)[C@H](O)[C@H](O)CO` [Streptozocin], the “surface PD-L1 immunofluorescence intensity” value was 1.01. With `CN(N=O)C(=O)N[C@@H](C=O)[C@@H](O)[C@H](O)[C@H](O)CO` [Streptozotocin] the “surface PD-L1 immunofluorescence intensity” value was 1.04. With `CN1CCN(C(c2ccccc2)c2ccc(Cl)cc2)CC1` (centres undefined) [Chlorcyclizine hydrochloride] the “surface PD-L1 immunofluorescence intensity” value was 1.03. For `Cc1cccc(Nc2cc(Cl)nc(SCC(=O)O)n2)c1C`, the “surface PD-L1 immunofluorescence intensity” value was 1.02 and 1.06. `O=C(N/N=C/c1ccc([N+](=O)[O-])o1)c1ccc(O)cc1` [Nifuroxazide] was tested, and the “surface PD-L1 immunofluorescence intensity” value was 0.994. In the case of `NC(=O)c1ncn([C@@H]2O[C@H](CO)[C@@H](O)[C@H]2O)c1O` [Mizoribine (Bredinin)], the “surface PD-L1 immunofluorescence intensity” value is reported as 1.01. `Cc1cn([C@@H]2C[C@@H](O)[C@H](CO)O2)c(=O)[nH]c1=O` [Telbivudine (Sebivo, Tyzeka)] was tested, and the “surface PD-L1 immunofluorescence intensity” value was 1.07. `CN(C)CCCSc1ccccc1NC(=O)/C=C/c1ccccc1` [Cinanserin hydrochloride] was tested, and the “surface PD-L1 immunofluorescence intensity” value was 0.955. `COC(=O)[C@H]1[C@H]2C[C@@H]3c4[nH]c5cc(OC)ccc5c4CCN3C[C@H]2C[C@@H](OC(=O)c2cc(OC)c(OC)c(OC)c2)[C@@H]1OC` [Reserpine] was tested, and the “surface PD-L1 immunofluorescence intensity” value was 1 ± 0.1. For `COc1cc2c(cc1OC)-c1cc3ccc(OC)c(OC)c3c[n+]1CC2` [Palmatine chloride], the “surface PD-L1 immunofluorescence intensity” value was 1.14. In the case of `CC(C)C[C@H](NC(=O)[C@@H](O)[C@H](N)Cc1ccccc1)C(=O)O` [Bestatin], the “surface PD-L1 immunofluorescence intensity” value is reported as 0.973. `C=CCc1ccc(O)c(-c2ccc(O)c(CC=C)c2)c1` [Honokiol] was tested, and the “surface PD-L1 immunofluorescence intensity” value was 1.06 ± 0.046. In the case of `CNC(=C[N+](=O)[O-])NCCSCc1ccc(CN(C)C)o1` [Ranitidine hydrochloride], the “surface PD-L1 immunofluorescence intensity” value is reported as 0.989 ± 0.038. In the case of `CCOC(=O)Nc1ccc2c(c1)N(C(=O)CCN1CCOCC1)c1ccccc1S2` [Moricizine hydrochloride], the “surface PD-L1 immunofluorescence intensity” value is reported as 1.07. For `O=c1c(-c2ccc(O)cc2)coc2cc(O)cc(O)c12` [Genistein], the “surface PD-L1 immunofluorescence intensity” value was 1.01 ± 0.043. For `C[C@H](NC(=O)Cc1cc(F)cc(F)c1)C(=O)N[C@@H]1C(=O)N(C)c2ccccc2-c2ccccc21`, the “surface PD-L1 immunofluorescence intensity” value was 0.973. In the case of `CSc1cccc(Nc2ncc3cc(-c4c(Cl)cccc4Cl)c(=O)n(C)c3n2)c1`, the “surface PD-L1 immunofluorescence intensity” value is reported as 1.28. In the case of `[Cl-].[Li+]` [Lithium Chloride], the “surface PD-L1 immunofluorescence intensity” value is reported as 1.08. `CCCCCCN(CCCCCC)C(=O)Cc1c(-c2ccc(F)cc2)[nH]c2ccccc12` was tested, and the “surface PD-L1 immunofluorescence intensity” value was 1.07. In the case of `CC(=O)NNC(=O)N1Cc2ccccc2Oc2ccc(Cl)cc21`, the “surface PD-L1 immunofluorescence intensity” value is reported as 1.07. `OC1CCC(Nc2nc(-c3ccccc3)nc3[nH]ccc23)CC1` (centres undefined) was tested, and the “surface PD-L1 immunofluorescence intensity” value was 1.02. In the case of `CNC[C@H](O)c1cccc(O)c1` [Phenylephrine HCl], the “surface PD-L1 immunofluorescence intensity” value is reported as 1.01. `O=C(O[C@@H]1Cc2c(O)cc(O)cc2O[C@@H]1c1cc(O)c(O)c(O)c1)c1cc(O)c(O)c(O)c1` [Epigallocatechin gallate] was tested, and the “surface PD-L1 immunofluorescence intensity” value was 0.875 ± 0.079. With `N#C[C@@H]1CCCN1C(=O)CNC12CC3CC(CC(O)(C3)C1)C2` [Vildagliptin (LAF-237)] the “surface PD-L1 immunofluorescence intensity” value was 0.996. In the case of `COc1cc2ncnc(Nc3ccc(Cl)cc3F)c2cc1OC`, the “surface PD-L1 immunofluorescence intensity” value is reported as 0.86. In the case of `N[C@@H]1CCCN(c2c(/C=C3\SC(=O)NC3=O)cccc2-c2ccccc2)C1`, the “surface PD-L1 immunofluorescence intensity” value is reported as 1.07. With `Cc1cccc(CCN2CCC(C(=O)c3ccc(NS(C)(=O)=O)cc3)CC2)n1` [E-4031 dihydrochloride] the “surface PD-L1 immunofluorescence intensity” value was 0.981. With `CO[C@H]1C[C@@H]2CC[C@@H](C)[C@@](O)(O2)C(=O)C(=O)N2CCCC[C@H]2C(=O)O[C@H]([C@H](C)C[C@@H]2CC[C@@H](O)[C@H](OC)C2)CC(=O)[C@H](C)/C=C(\C)[C@@H](O)[C@@H](OC)C(=O)[C@H](C)C[C@H](C)/C=C/C=C/C=C/1C` [Rapamycin] the “surface PD-L1 immunofluorescence intensity” value was 1. With `C#C[C@]1(O)CC[C@H]2[C@@H]3CCc4cc(OC)ccc4[C@H]3CC[C@@]21C` [Mestranol] the “surface PD-L1 immunofluorescence intensity” value was 1.15. `C#C[C@]1(O)CC[C@H]2[C@@H]3CCc4cc(OC)ccc4[C@H]3CC[C@@]21C` [Ethynylestradiol 3-methyl ether] was tested, and the “surface PD-L1 immunofluorescence intensity” value was 0.941. For `CC(C)NCC(O)c1ccc(NS(C)(=O)=O)cc1` (centres undefined) [Sotalol hydrochloride], the “surface PD-L1 immunofluorescence intensity” value was 1.03 ± 0.084. For `CC1=C(C)C(=O)C(CCCCC#CCCCC#CCO)=C(C)C1=O`, the “surface PD-L1 immunofluorescence intensity” value was 0.952. `CN(C)CCCCSC(=N)N` was tested, and the “surface PD-L1 immunofluorescence intensity” value was 1.02. In the case of `COc1ccc2cccc(CCNC(C)=O)c2c1` [Agomelatine], the “surface PD-L1 immunofluorescence intensity” value is reported as 1.03. For `COc1cc(C=O)ccc1O` [Vanillin], the “surface PD-L1 immunofluorescence intensity” value was 1.05. `Cc1[nH]c(/C=C2\C(=O)Nc3ccccc32)c(C)c1CCC(=O)O` was tested, and the “surface PD-L1 immunofluorescence intensity” value was 1.01 and 0.962. In the case of `CC(=O)N1CCN(c2ccc(OCC3COC(Cn4ccnc4)(c4ccc(Cl)cc4Cl)O3)cc2)CC1` (centres undefined) [Ketoconazole], the “surface PD-L1 immunofluorescence intensity” value is reported as 1.09 ± 0.15. With `CC(C)(C)NS(=O)(=O)c1cncc(-c2cc(F)c3nc(N)nn3c2)c1` the “surface PD-L1 immunofluorescence intensity” value was 1.01. For `O=C(O)P(=O)(O)O` [Foscarnet Sodium], the “surface PD-L1 immunofluorescence intensity” value was 0.957. In the case of `Clc1ccccc1CN1CCc2sccc2C1` [Ticlopidine hydrochloride], the “surface PD-L1 immunofluorescence intensity” value is reported as 0.913. For `COc1cc(Br)c(S(=O)(=O)Nc2ccc(Cl)c(O[C@@H]3CCN(C)C3)c2)cc1OC`, the “surface PD-L1 immunofluorescence intensity” value was 0.991. In the case of `CCN(CC)CCOC(=O)C1(c2ccc([N+](=O)[O-])cc2)CCCC1` [Nitrocaramiphen hydrochloride], the “surface PD-L1 immunofluorescence intensity” value is reported as 0.961 ± 0.011. In the case of `Cc1cc(NC(=O)C2=C(O)c3ccccc3S(=O)(=O)N2C)no1` [Isoxicam], the “surface PD-L1 immunofluorescence intensity” value is reported as 0.871. For `CO[C@@]1(NC(=O)C2SC(=C(C(N)=O)C(=O)O)S2)C(=O)N2C(C(=O)O)=C(CSc3nnnn3C)CS[C@@H]21` (some centres undefined) [Cefotetan], the “surface PD-L1 immunofluorescence intensity” value was 1.01. For `CN(C)CCCN1c2ccccc2CCc2ccc(Cl)cc21` [Clomipramine hydrochloride], the “surface PD-L1 immunofluorescence intensity” value was 1.01 ± 0.1. For `C[C@H](CCC(=O)NCC(=O)O)[C@H]1CC[C@H]2[C@@H]3CC[C@@H]4C[C@H](O)CC[C@]4(C)[C@H]3C[C@H](O)[C@]12C` [Glycodeoxycholic acid], the “surface PD-L1 immunofluorescence intensity” value was 1.04. `COC(=O)C1=C(C)NC(C)=C(C(=O)OC)C1c1ccccc1[N+](=O)[O-]` [Nifedipine] was tested, and the “surface PD-L1 immunofluorescence intensity” value was 0.969 ± 0.11. For `CN(C)c1nc(N)c(C(=O)Nc2cccnc2)nc1Cl` [ACDPP hydrochloride], the “surface PD-L1 immunofluorescence intensity” value was 0.866. In the case of `N#Cc1ccc(NCCNCC(=O)N2CCC[C@H]2C#N)nc1` [NVP DPP 728 dihydrochloride], the “surface PD-L1 immunofluorescence intensity” value is reported as 1.07. `CO[C@@]1(NC(=O)C(C(=O)O)c2ccc(O)cc2)C(=O)N2C(C(=O)O)=C(CSc3nnnn3C)CO[C@@H]21` (some centres undefined) [Moxalactam disodium salt] was tested, and the “surface PD-L1 immunofluorescence intensity” value was 0.979. For `C=CCc1cc(OC)c(O)c(C(=O)NCCO)c1` [Alibendol], the “surface PD-L1 immunofluorescence intensity” value was 1.17. `CN(CCc1ccc(Cl)c(Cl)c1)CC(O)COc1ccc(NS(C)(=O)=O)cc1` (centres undefined) was tested, and the “surface PD-L1 immunofluorescence intensity” value was 0.978 and 0.863. In the case of `C#C[C@]1(O)CC[C@H]2[C@@H]3CCC4=CC(=O)CC[C@@H]4[C@H]3CC[C@@]21C` [Norethindrone (Norethisterone)], the “surface PD-L1 immunofluorescence intensity” value is reported as 1.03. `C#C[C@]1(O)CC[C@H]2[C@@H]3CCC4=CC(=O)CC[C@@H]4[C@H]3CC[C@@]21C` [Norethindrone] was tested, and the “surface PD-L1 immunofluorescence intensity” value was 0.828. With `Nc1[nH]nc2nc3ccccc3nc12` the “surface PD-L1 immunofluorescence intensity” value was 1.02. With `Cc1cc2c(cc1C1(c3ccc(C(=O)O)cn3)CC1)C(C)(C)CCC2(C)C` the “surface PD-L1 immunofluorescence intensity” value was 0.98. With `C#C[C@]1(OC(C)=O)CC[C@H]2[C@@H]3CCC4=C[C@@H](OC(C)=O)CC[C@@H]4[C@H]3CC[C@@]21C` [Ethynodiol diacetate] the “surface PD-L1 immunofluorescence intensity” value was 1.03 ± 0.089. With `N[C@H]1CCN(O)C1=O` the “surface PD-L1 immunofluorescence intensity” value was 1.09. `CCOC(=O)C=Cc1ccc(O)c(OC)c1` [Ferulic acid ethylester] was tested, and the “surface PD-L1 immunofluorescence intensity” value was 0.976. In the case of `NC(=O)c1ccc2nc(-c3ccc(Oc4ccc(Cl)cc4)cc3)[nH]c2c1`, the “surface PD-L1 immunofluorescence intensity” value is reported as 1.02. With `COc1ccc([C@@H]2CNC(=O)C2)cc1OC1CCCC1` [(R)-(-)-Rolipram] the “surface PD-L1 immunofluorescence intensity” value was 0.98. For `Nc1ccc(S(=O)(=O)Nc2ncccn2)cc1` [Sulfadiazine], the “surface PD-L1 immunofluorescence intensity” value was 0.83. `NS(=O)(=O)c1cc2c(cc1Cl)N=C(CSCc1ccccc1)NS2(=O)=O` [Benzthiazide] was tested, and the “surface PD-L1 immunofluorescence intensity” value was 1.05. `Clc1ccc2c(c1)N=C(N1CCNCC1)c1ccccc1N2` [N-Desmethylclozapine] was tested, and the “surface PD-L1 immunofluorescence intensity” value was 1.07. In the case of `CC(=O)OC/C=C(C)/C=C/C=C(C)/C=C/C1=C(C)CCCC1(C)C` [Retinyl acetate], the “surface PD-L1 immunofluorescence intensity” value is reported as 0.937. For `O=C1C(CC[S+]([O-])c2ccccc2)C(=O)N(c2ccccc2)N1c1ccccc1` (centres undefined) [Sulfinpyrazone], the “surface PD-L1 immunofluorescence intensity” value was 0.867. For `O=C1NC(=O)/C(=C/c2ccc(-c3ccc(F)cc3O)o2)S1`, the “surface PD-L1 immunofluorescence intensity” value was 0.979. In the case of `CCCn1c(=O)c2[nH]c(-c3ccccc3)nc2n(CCC)c1=O` [1,3-Dipropyl-8-phenylxanthine], the “surface PD-L1 immunofluorescence intensity” value is reported as 1.01. `COc1ccc(CCN(C)CCc2ccc(OC)c(OC)c2)cc1OC` was tested, and the “surface PD-L1 immunofluorescence intensity” value was 0.982. For `COc1ccc(CCN(C)CCc2ccc(OC)c(OC)c2)cc1OC` [YS-035 hydrochloride], the “surface PD-L1 immunofluorescence intensity” value was 1. For `CC(=O)O[C@]1(C(C)=O)CC[C@H]2[C@@H]3C=C(C)C4=CC(=O)CC[C@@H]4[C@H]3CC[C@@]21C` [Nomegestrol acetate], the “surface PD-L1 immunofluorescence intensity” value was 1.03. For `NC(=O)c1noc([C@H](CCCC2CCCCC2)CC(=O)NO)n1`, the “surface PD-L1 immunofluorescence intensity” value was 1.18. In the case of `CC1(CN2CCC(n3c(=O)[nH]c4ccccc43)CC2)OCc2ccccc2-n2cccc21` (centres undefined), the “surface PD-L1 immunofluorescence intensity” value is reported as 1.03. In the case of `CC(C)Oc1cccc(-n2c(CCc3c[nH]c4ccc(Br)cc34)nc3ccccc3c2=O)c1`, the “surface PD-L1 immunofluorescence intensity” value is reported as 1.15. For `Cc1c(NC(=O)c2ccc(C(C)(C)C)cc2)cccc1-c1cn(C)c(=O)c(Nc2ccc(C(=O)N3CCOCC3)cc2)n1`, the “surface PD-L1 immunofluorescence intensity” value was 1.08.
